# Reference: publication PMC11651612
# Sequences of proteins named here, by UniProt entry; tags and fusion partners are left off. A change or cut given only in a name is not applied to a line headed by its entry.
# UniProt J9VF80: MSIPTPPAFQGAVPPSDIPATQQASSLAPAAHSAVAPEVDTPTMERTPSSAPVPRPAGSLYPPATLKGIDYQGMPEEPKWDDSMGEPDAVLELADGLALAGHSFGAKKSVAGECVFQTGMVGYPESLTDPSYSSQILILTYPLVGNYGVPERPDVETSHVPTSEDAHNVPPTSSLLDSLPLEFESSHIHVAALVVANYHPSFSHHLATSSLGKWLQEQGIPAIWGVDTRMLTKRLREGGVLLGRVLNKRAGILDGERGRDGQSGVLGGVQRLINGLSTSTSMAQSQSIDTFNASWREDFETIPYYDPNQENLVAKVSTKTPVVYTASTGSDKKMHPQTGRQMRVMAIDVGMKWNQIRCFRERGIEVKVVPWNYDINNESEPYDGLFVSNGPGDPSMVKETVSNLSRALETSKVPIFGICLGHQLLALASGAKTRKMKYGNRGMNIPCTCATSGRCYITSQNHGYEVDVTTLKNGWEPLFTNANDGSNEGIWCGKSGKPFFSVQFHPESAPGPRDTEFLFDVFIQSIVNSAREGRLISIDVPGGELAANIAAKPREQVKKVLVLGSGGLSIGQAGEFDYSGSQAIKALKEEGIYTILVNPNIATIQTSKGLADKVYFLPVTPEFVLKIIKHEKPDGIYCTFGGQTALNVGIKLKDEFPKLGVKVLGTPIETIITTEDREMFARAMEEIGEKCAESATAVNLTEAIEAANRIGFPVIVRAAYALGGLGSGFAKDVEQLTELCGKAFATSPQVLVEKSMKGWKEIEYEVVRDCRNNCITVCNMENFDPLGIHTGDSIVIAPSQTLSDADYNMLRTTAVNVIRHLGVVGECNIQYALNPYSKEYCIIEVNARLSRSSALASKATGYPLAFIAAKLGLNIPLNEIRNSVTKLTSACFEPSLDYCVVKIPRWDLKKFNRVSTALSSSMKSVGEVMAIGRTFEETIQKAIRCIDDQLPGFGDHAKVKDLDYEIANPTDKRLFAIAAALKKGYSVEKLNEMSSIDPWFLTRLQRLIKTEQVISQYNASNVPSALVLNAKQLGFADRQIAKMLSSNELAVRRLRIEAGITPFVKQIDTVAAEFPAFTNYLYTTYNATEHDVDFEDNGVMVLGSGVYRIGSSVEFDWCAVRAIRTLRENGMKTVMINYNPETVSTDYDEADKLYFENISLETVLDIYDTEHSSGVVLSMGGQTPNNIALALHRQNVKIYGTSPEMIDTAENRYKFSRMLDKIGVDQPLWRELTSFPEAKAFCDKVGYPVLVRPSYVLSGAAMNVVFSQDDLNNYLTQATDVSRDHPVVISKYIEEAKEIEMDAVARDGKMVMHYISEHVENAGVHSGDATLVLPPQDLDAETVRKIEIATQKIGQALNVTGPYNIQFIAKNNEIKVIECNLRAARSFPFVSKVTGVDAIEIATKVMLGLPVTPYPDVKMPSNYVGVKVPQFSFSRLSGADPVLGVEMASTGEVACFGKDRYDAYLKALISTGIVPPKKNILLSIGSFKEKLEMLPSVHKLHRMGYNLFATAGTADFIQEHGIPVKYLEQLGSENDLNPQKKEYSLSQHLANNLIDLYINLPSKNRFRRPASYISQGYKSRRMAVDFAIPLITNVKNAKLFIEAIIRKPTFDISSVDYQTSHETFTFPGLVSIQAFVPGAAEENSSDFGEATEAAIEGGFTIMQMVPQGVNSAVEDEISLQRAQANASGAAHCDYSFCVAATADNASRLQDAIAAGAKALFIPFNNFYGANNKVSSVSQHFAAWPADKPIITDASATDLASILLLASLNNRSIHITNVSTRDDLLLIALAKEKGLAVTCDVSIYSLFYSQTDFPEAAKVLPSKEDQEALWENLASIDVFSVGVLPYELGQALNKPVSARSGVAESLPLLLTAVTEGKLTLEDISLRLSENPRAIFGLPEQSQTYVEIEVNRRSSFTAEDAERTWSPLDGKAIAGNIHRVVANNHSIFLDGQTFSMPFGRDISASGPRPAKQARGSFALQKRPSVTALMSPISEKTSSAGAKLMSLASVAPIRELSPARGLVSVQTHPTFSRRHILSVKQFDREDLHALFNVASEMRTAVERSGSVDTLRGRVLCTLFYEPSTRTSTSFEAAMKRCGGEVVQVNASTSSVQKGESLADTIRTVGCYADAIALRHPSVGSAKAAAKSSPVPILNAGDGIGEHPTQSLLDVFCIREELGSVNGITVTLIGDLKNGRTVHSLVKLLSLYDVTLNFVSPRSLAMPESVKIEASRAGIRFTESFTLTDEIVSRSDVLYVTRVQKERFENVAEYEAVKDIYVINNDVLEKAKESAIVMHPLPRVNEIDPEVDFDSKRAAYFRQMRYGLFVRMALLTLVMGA
# UniProt J9VU43: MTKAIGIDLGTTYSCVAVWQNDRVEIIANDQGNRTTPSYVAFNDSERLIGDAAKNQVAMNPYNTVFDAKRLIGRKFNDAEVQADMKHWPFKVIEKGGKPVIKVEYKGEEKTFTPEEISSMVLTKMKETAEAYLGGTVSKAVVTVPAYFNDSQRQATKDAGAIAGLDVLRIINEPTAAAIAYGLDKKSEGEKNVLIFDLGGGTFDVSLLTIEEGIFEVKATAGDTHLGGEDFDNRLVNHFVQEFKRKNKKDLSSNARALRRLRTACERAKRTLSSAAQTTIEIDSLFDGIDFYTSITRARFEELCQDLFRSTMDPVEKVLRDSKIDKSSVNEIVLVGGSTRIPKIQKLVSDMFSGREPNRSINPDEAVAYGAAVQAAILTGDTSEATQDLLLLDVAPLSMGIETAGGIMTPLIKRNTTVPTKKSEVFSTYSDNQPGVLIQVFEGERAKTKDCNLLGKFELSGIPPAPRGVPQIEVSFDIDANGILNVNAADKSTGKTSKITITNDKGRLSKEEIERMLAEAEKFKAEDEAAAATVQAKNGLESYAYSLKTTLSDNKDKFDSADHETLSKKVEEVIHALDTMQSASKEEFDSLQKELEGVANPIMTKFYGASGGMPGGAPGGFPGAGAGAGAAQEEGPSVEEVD
# UniProt J9VQP8: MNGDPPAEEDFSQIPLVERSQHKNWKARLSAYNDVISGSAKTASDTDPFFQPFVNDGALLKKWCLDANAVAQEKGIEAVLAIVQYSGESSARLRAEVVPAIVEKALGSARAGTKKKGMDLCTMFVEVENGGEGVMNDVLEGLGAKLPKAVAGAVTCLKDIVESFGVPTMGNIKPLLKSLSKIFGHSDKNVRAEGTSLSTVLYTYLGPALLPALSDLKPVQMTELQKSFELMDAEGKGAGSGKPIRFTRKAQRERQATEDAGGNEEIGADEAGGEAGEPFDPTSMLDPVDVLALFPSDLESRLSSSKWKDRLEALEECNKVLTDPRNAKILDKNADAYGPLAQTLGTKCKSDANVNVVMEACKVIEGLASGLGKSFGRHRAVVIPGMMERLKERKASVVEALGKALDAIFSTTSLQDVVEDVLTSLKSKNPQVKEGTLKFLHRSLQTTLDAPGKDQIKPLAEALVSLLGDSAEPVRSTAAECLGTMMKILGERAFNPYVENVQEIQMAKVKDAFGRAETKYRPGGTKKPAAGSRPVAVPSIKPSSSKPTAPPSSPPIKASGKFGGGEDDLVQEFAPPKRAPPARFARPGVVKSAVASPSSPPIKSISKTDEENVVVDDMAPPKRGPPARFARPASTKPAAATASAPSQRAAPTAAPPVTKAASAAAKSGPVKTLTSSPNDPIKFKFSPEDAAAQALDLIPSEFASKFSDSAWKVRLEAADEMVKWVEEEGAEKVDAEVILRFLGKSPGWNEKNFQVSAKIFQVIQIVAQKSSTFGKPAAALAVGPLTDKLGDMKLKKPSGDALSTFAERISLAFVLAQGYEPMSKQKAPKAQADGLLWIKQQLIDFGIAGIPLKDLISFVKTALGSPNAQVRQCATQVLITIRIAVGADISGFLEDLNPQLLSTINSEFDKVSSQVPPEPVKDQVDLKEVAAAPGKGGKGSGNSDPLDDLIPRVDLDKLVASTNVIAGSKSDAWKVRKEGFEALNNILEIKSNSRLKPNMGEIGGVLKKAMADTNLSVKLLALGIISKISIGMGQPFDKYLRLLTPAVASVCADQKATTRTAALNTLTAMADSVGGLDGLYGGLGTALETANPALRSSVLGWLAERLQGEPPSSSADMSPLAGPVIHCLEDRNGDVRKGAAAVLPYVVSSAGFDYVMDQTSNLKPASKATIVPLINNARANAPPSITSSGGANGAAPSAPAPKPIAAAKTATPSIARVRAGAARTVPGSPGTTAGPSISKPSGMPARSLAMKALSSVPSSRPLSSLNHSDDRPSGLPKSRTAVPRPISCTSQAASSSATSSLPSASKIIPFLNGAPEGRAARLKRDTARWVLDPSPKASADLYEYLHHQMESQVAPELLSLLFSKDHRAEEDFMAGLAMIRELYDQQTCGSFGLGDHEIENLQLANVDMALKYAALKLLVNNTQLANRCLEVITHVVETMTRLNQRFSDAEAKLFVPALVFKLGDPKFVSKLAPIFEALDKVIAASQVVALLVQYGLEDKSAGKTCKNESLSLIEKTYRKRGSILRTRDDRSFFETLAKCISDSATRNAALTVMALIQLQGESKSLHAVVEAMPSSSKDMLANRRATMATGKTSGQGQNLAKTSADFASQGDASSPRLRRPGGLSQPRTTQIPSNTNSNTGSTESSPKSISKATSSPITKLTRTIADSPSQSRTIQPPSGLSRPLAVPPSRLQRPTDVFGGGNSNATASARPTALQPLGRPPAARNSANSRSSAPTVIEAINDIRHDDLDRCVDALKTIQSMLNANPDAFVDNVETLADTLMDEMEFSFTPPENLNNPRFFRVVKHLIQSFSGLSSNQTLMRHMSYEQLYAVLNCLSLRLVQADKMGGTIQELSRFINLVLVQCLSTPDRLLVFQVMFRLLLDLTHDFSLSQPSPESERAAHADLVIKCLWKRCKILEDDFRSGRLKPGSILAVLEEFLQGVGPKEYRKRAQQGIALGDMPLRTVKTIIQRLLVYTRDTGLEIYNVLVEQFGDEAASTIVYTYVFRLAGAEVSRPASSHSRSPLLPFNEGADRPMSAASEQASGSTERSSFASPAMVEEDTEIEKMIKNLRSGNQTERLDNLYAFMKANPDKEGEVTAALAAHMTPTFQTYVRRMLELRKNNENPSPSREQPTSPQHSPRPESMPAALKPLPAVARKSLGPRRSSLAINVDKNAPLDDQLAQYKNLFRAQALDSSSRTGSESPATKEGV
# UniProt J9VS16: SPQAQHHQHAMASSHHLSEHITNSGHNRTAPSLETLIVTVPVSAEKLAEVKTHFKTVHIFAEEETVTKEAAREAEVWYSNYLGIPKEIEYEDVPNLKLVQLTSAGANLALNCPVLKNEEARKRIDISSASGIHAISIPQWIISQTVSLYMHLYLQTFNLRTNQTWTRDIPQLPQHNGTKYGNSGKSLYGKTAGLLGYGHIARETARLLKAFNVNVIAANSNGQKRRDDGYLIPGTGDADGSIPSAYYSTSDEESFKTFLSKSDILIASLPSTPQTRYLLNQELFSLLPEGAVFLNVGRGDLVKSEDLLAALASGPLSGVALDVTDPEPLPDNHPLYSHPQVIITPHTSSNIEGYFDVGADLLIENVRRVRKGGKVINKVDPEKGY
# UniProt J9VXH6: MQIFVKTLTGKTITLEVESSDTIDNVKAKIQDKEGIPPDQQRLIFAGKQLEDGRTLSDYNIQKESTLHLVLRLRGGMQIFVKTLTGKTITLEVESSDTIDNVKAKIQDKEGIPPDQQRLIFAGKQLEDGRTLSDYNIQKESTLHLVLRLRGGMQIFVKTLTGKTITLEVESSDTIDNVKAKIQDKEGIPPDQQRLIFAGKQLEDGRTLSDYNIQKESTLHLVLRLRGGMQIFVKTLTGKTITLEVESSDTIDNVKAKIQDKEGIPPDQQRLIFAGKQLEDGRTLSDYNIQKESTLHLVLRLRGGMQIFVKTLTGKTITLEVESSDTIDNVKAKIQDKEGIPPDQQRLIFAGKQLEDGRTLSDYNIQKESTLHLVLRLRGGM
# UniProt J9VKQ6: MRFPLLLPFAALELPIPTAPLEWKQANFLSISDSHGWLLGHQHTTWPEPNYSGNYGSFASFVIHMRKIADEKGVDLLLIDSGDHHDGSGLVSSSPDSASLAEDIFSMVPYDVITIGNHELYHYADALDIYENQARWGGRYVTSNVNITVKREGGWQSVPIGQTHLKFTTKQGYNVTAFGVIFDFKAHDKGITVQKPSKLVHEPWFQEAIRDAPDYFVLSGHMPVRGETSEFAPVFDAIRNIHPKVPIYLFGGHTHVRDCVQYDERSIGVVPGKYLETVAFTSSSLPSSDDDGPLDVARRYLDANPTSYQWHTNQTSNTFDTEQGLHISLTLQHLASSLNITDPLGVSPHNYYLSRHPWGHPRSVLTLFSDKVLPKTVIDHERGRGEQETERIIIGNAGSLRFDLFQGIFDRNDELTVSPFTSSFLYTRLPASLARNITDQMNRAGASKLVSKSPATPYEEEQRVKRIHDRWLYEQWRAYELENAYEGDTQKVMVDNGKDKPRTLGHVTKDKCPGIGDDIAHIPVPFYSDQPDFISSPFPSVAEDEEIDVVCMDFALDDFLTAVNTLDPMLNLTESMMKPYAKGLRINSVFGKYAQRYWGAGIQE
# Results are given in words; binding and its absence hold for the method and conditions named. Binding seen in cells or lysates may run through a third protein. A yes stands for co-enrichment or nearness to the bait. Other partners may have been found.
# What was measured:
# [1] = biological target: T1, Cdc10-mCherry (C. neoformans) (UniProt J9VMT9); experiment: affinity purification with mass spectrom
# T1 sequence: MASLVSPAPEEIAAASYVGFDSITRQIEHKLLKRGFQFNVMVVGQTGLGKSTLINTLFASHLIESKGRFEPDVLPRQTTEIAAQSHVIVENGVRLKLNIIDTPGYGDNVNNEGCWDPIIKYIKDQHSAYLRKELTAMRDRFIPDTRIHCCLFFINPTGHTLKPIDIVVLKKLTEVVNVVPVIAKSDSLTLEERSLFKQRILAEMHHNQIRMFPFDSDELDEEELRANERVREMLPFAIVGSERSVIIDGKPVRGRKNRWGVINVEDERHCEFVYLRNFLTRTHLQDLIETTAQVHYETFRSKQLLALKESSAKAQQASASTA
# [2] = biological target: T2, Cdc3-mCherry (C. neoformans) (UniProt J9VUF2); experiment: affinity purification with mass spectrom
# T2 sequence: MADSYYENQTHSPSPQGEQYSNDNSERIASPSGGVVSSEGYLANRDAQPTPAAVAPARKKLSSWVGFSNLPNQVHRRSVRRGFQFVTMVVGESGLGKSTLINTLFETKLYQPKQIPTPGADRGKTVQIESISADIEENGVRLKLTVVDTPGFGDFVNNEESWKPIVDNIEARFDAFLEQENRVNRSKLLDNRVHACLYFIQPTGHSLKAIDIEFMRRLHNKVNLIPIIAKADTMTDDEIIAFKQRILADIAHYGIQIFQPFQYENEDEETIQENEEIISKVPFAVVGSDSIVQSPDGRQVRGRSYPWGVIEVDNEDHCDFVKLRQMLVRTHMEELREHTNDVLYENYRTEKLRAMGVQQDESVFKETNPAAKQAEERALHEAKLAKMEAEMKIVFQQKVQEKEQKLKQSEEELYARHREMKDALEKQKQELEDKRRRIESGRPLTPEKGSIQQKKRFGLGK
# [3] = biological target: T2, Cdc3-mCherry (C. neoformans); experiment: affinity purification with mass spectrometry; mCherry-tagged septin captured from C. neoformans lysate on RFP-Trap agarose, 4 h at 4°C, washed with TBS with 2 M urea pH 7.5; GeLC-MS/MS; untagged H99 as negative control; hits logFC >2 and adjusted p <0.001 (text-named hits <0.05); exponential cultures at ~25°C or shifted to 37°C for 2 h; N = 5
# [4] = biological target: T2, Cdc3-mCherry (C. neoformans); experiment: affinity purification with mass spectrometry
# [5] = biological target: T1, Cdc10-mCherry (C. neoformans); experiment: affinity purification with mass spectrometry
# [6] = biological target: T1, Cdc10-mCherry (C. neoformans); experiment: affinity purification with mass spectrometry; mCherry-tagged septin captured from C. neoformans lysate on RFP-Trap agarose, 4 h at 4°C, washed with TBS with 2 M urea pH 7.5; GeLC-MS/MS; untagged H99 as negative control; hits logFC >2 and adjusted p <0.001 (text-named hits <0.05); exponential cultures at ~25°C or shifted to 37°C for 2 h; N = 5
substance,measurement,setting,value
1-acyl-sn-glycerol-3-phosphate acyltransferase (from UniProt J9VR06),binding,[1],binds
same,binding,[2],binds
"Carbamoyl-phosphate synthase, large subunit (from UniProt J9VF80 1-2333)",binding,[3],binds
Carboxypeptidase A4 (from UniProt J9VV13),binding,[4],binds
Cytoplasmic protein (CNAG_02286) (from UniProt J9VQ58 1-1525),binding,[5],binds
Hsp72-like protein (from UniProt J9VU43 1-642),binding,[6],binds
Microtubule Associated protein (from UniProt J9VQP8 1-2208),binding,[6],binds
same,binding,[3],binds
Oxidoreductase (CNAG_07782) (from UniProt J9VS16),binding,[5],binds
same,binding,[4],binds
Polyubiquitin (CNAG_01920) (from UniProt J9VXH6),binding,[3],binds
Protein disulfide-isomerase (from UniProt J9VW50),binding,[3],binds
Septin ring protein CDC11 (from UniProt J9VSM5),binding,[6],binds
same,binding,[3],binds
Vacuolar protein (CNAG_01314) (from UniProt J9VKQ6),binding,[2],binds
